Laboratory results as given in patent US4430324A (priority 1982, dated 1984).

Assay: blind taste study, tasting-panel of three judges
Conditions: 0.11 mM concentrations, approximately 5000 ppm F^-, unanimous

For `O=S(=O)([O-])[O-].[Zn+2]` [ZnSO4], the “astringency, comparison and ranking of zinc salts” value was “ranked in descending order of astringency”.
For `O=S(=O)([O-])c1ccc(O)cc1.O=S(=O)([O-])c1ccc(O)cc1.[Zn+2]` [zinc phenolsulfonate], the “astringency, comparison and ranking of zinc salts” value was “ranked in descending order of astringency”.
